Measurements reported in PubChem BioAssay AID1259308 (NCATS, 2017)
Here is an unselected part of about 59,000 reagents tested. Of all reagents, about 1,510 (2.6%) were called active. 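Calls use total luciferase alone and ignore viability, so some active siRNAs may act by altering cell number.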 Not all columns of the deposit are shown. No sequences are given here.

Assay: 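Knock-downs that increase output of a recombinant reporter protein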 (primary screen)
System: human HEK293 embryonic kidney cells stably expressing firefly luciferase (HEK-CMV-Luc2-Hygro)
Knock-down reagent: single siRNA against human genes, 0.8 pmol siRNA per well
Time to read-out: 72 h
Detection: 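Reporter luminescence and viable-cell signal on separate replicate plates, given as percent of non-targeting control and median/MAD z-scores, plus per-cell luciferase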
Reading the numbers: total luciferase, z-score and total luciferase, % of control: higher = more reporter protein produced; luciferase per cell, z-score: higher = more reporter output per viable cell
Active means: 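An siRNA counts as active if its total luciferase robust z-score exceeds 3; genes with two or more such siRNAs out of three were retested with fresh siRNAs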
Calls: active = raised luciferase; inactive = no rise

no.	gene symbol	PubChem SID	total luciferase, z-score	total luciferase, % of control	luciferase per cell, z-score	outcome
1	CHKA	SID160730523	0.043	82.7	-0.0874	inactive
2	CHKA	SID160742831	3.19	145	3.03	active
3	CHKA	SID160742852	-0.0155	81.6	-0.0347	inactive
4	ERMN	SID160746042	-0.813	65.7	-0.586	inactive
5	ERMN	SID160746043	0.0182	82.2	-0.567	inactive
6	ERMN	SID160746044	-1.17	58.7	-1.11	inactive
7	SHC4	SID160766847	0.513	92.1	0.378	inactive
8	SHC4	SID160766849	-0.619	69.6	0.0372	inactive
9	SHC4	SID160766850	1.07	103	0.28	inactive
10	MYOD1	SID160777733	1.99	121	0.885	inactive
11	MYOD1	SID160777735	0.434	90.5	0.645	inactive
12	MYOD1	SID160777736	-0.117	79.6	-0.289	inactive
13	ANKRD33	SID160733100	-3.08	20.7	-4.22	inactive
14	ANKRD33	SID160764548	-1.36	54.8	0.512	inactive
15	ANKRD33	SID160764549	-0.364	74.6	-0.541	inactive
16	SAMD4A-AS1	SID160772762	2.47	131	2.12	inactive
17	SAMD4A-AS1	SID160772763	-0.84	65.2	-0.654	inactive
18	SAMD4A-AS1	SID160772764	0.202	85.9	-0.0203	inactive
19	SIKE1	SID160750097	-1.42	53.7	-0.776	inactive
20	SIKE1	SID160750098	-0.26	76.7	-0.595	inactive
21	SIKE1	SID160750099	4.7	175	3.28	active

Continued (5 carried over from the part before).
no.	gene symbol	PubChem SID	total luciferase, z-score	total luciferase, % of control	luciferase per cell, z-score	outcome
17	SAMD4A-AS1	SID160772763	-0.84	65.2	-0.654	inactive
18	SAMD4A-AS1	SID160772764	0.202	85.9	-0.0203	inactive
19	SIKE1	SID160750097	-1.42	53.7	-0.776	inactive
20	SIKE1	SID160750098	-0.26	76.7	-0.595	inactive
21	SIKE1	SID160750099	4.7	175	3.28	active
22	LSM3	SID160738630	1.14	105	1.54	inactive
23	LSM3	SID160738631	-1	61.9	-0.172	inactive
24	LSM3	SID160738632	-0.499	72	-0.322	inactive
25	GRPEL1P1	SID160772462	0.145	84.8	1.66	inactive
26	GRPEL1P1	SID160772463	2.82	138	2.72	inactive
27	GRPEL1P1	SID160772464	0.54	92.6	-0.224	inactive
28	SHISA9	SID160734679	-1.13	59.5	-0.305	inactive
29	SHISA9	SID160734680	-0.0967	80	0.258	inactive
30	SHISA9	SID160767757	1.47	111	0.757	inactive
31	SHISA9	SID160767758	0.635	94.5	-0.163	inactive
32	SHISA9	SID160767759	0.163	85.1	-0.124	inactive
33	SHISA9	SID160773373	2.02	122	2.46	inactive
34	ZNF816	SID160756342	-0.0113	81.7	-0.224	inactive
35	ZNF816	SID160756343	-0.515	71.6	-1.07	inactive
36	ZNF816	SID160756344	1.46	111	0.479	inactive
37	CDK5RAP2	SID160744274	0.279	87.4	0.271	inactive
38	CDK5RAP2	SID160744275	-0.989	62.2	-0.925	inactive
39	CDK5RAP2	SID160744277	0.269	87.2	-0.308	inactive
